{"source": "PubChem BioAssay AID540303", "about": "(National Center for Advancing Translational Sciences (NCATS), 2011)", "note": "In all, about 330,000 compounds went through this assay and about 1,000 (0.3%) were called active. The inconclusive results got no clear call from the source; some entries with a clear call stand among them for comparison. Calls come from the whole dose curve; as a rule, active = well fitted inhibition curve with a large enough effect; inconclusive = small, poorly fitted or top-dose-only effect; inactive = no such curve, though single readings can be large or run the other way; tested in mouse RAW 264.7 cells. Where the call is inconclusive, the potency comes from a doubtful curve fit. % is set by controls: 0 for no effect and ±100 for the full control effect; potency is the fitted concentration of half-maximal effect."}
{"assay": "qHTS for Inhibitors of Cell Surface uPA Generation; note: nearly all actives have a fitted effect of over 55% in size", "conditions": "cell surface uPA generation assay; series mostly up to 38.3 µM; activity change, negative = inhibition: at the top concentration", "in_short": "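RAW 264.7 cells (4000/well) were plated overnight at 37 C and then given compounds in a 1:5 series (up to 38.3 uM final) plus reagent for 24 h. Intracellular ATP was measured by ATP-Lite luminescence and stays elevated when uPA-dependent LF entry is blocked.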"}
{"smiles": "CN(CC(=O)Nc1ccc(Cl)c(C(F)(F)F)c1)C(=O)c1ccc(OCC2CCCO2)cc1", "note": "(centres undefined)", "Potency": "inconclusive: 11.2 µM [inhibitor, partial curve, poor fit]"}
{"smiles": "CCOC1=C(N2CC2)C(=O)C(OCC)=C(N2CC2)C1=O", "activity change, negative = inhibition": "inactive: 0.407%"}
{"smiles": "CCCCC(=O)N/N=C/c1c(O)n(CC)c(=S)n(CC)c1=O", "Potency": "inconclusive: 12.6 µM [inhibitor, single point]"}
{"smiles": "CC12CC1(C)C(=O)N(c1cc(Cl)cc(Cl)c1)C2=O", "note": "(centres undefined)", "Potency": "inconclusive: 3.55 µM [inhibitor, partial curve, poor fit]"}
{"smiles": "O=[N+]([O-])c1ccc2c(c1)Cc1cc(O)ccc1-2", "Potency": "inconclusive: 7.94 µM [inhibitor, partial curve, poor fit]"}
{"smiles": "CCOC(=O)C(O)(c1ccc(N(CC)S(=O)(=O)c2ccccc2)cc1)C(F)(F)F", "note": "(centres undefined)", "activity change, negative = inhibition": "inactive: 3.07%"}
{"smiles": "C[n+]1c2cc(N)ccc2cc2ccc(N)cc21", "Potency": "inconclusive: 1.12 µM [inhibitor, full curve, poor fit]"}
{"smiles": "CC(=O)NC(Cc1ccc(N(CCCl)CCCl)cc1)C(=O)O", "note": "(centres undefined)", "Potency": "inconclusive: 7.08 µM [inhibitor, single point]"}
{"smiles": "CC/C(=C(\\c1ccc(O)cc1)c1ccc(OCCN(C)C)cc1)c1ccccc1", "Potency": "inconclusive: 2.82 µM [inhibitor, full curve]"}
{"smiles": "CCCCNc1c(-c2cccc(Sc3ccc(OC)cc3)c2)nc2ccccn12", "Potency": "inconclusive: 28.2 µM [inhibitor, single point]"}
{"smiles": "CCOC(=O)c1c(-n2c(C)cc(C=C3C(=O)NC(=S)NC3=O)c2C)sc2c1CCCC2", "Potency": "inconclusive: 28.2 µM [inhibitor, single point]"}
{"smiles": "Cc1ccc2cc(NC(=O)c3ccccc3)ccc2n1", "Potency": "inconclusive: 2.82 µM [inhibitor, full curve, poor fit]"}
{"smiles": "CCN1CCN(c2cc(C)c3cc(NC(=O)c4ccc(OC)c(OC)c4)ccc3n2)CC1", "Potency": "active: 7.94 µM"}
{"smiles": "COC(=O)C1=C(c2ccc(F)cc2OCc2ccccc2)C[C@@H]2CC[C@H]1N2C(=O)NC1CCN(Cc2ccccc2)CC1", "Potency": "inconclusive: 12.6 µM [inhibitor, single point]"}
{"smiles": "CC(C)Nc1ccc(Nc2ccccc2)cc1", "Potency": "inconclusive: 10 µM [inhibitor, partial curve, poor fit]"}
{"smiles": "CCOC(=O)C1=C(c2ccccc2)N=c2s/c(=C\\c3ccc(O)cc3)c(=O)n2C1c1cccs1", "note": "(centres undefined)", "Potency": "inconclusive: 10 µM [inhibitor, single point]"}
{"smiles": "COc1cc(OC)c2c(-c3cccc(-c4ccc(N(C)C)cc4)c3)cc(=O)oc2c1", "Potency": "active: 1 µM"}
{"smiles": "CC(C)CN(CC(C)C)C(=O)C1C2c3ccccc3C(c3ccccc32)C1C(=O)O", "note": "(centres undefined)", "activity change, negative = inhibition": "inactive: -5.06%"}
{"smiles": "O=C1N[C@@H](Cc2c[nH]c3ccccc23)COC(=O)[C@H](Cc2ccc(F)cc2)C/C=C\\C[C@@H]1CC(=O)N(CCO)Cc1ccccc1", "Potency": "inconclusive: 11.2 µM [inhibitor, single point]"}
{"smiles": "O=c1c2ccccc2nc(/C=C/c2ccco2)n1-c1ccccc1O", "Potency": "inconclusive: 7.08 µM [inhibitor, partial curve, poor fit]"}
{"smiles": "O=C(c1cc2c(s1)-c1ccccc1OC2)N1CCC2(CC1)OCCO2", "Potency": "inconclusive: 7.94 µM [inhibitor, single point]"}
{"smiles": "C=CC(=O)OCCO", "activity change, negative = inhibition": "inactive: 0.504%"}
{"smiles": "Nc1ccc(Cc2ccc(N)c(Cl)c2)cc1Cl", "Potency": "inconclusive: 3.16 µM [inhibitor, partial curve]"}
{"smiles": "CC1CCC(N2CCN(C(=O)COc3ccccc3)CC2)CC1", "note": "(centres undefined)", "Potency": "inconclusive: 2.24 µM [inhibitor, single point]"}
{"smiles": "CC(C)(C)NS(=O)(=O)c1ccc(OCC(=O)N2CCN(Cc3ccccc3)CC2)cc1", "activity change, negative = inhibition": "inactive: -8.71%"}
{"smiles": "C=C1C(=O)[C@@]23C[C@H]4[C@@H]5[C@@]6(C)CCC[C@@]57[C@@H]2[C@@H](O)[C@@H]1C[C@H]3[C@H]7N4C6", "Potency": "inconclusive: 2.82 µM [inhibitor, partial curve, poor fit]"}
{"smiles": "COC(=O)C1=C(c2ccc(F)cc2OCc2ccccc2)C[C@@H]2CC[C@H]1N2C(=O)NCc1cccc(OC)c1", "Potency": "inconclusive: 12.6 µM [inhibitor, single point]"}
{"smiles": "CC(C)[C@@]1(NC(=O)[C@@H]2C[C@@H]3c4cccc5[nH]cc(c45)C[C@H]3N(C)C2)O[C@@]2(O)[C@@H]3CCCN3C(=O)[C@H](Cc3ccccc3)N2C1=O", "Potency": "inconclusive: 5.62 µM [inhibitor, partial curve, poor fit]"}
{"smiles": "COC(=O)C[C@H](NC(=O)Cn1cnc(C(=O)Nc2ccc(C)c(C)c2)n1)C(=O)OC", "Potency": "inconclusive: 10 µM [inhibitor, partial curve, poor fit]"}
{"smiles": "COC(=O)C1=C(c2ccc(-c3ccccc3)c(F)c2)C[C@@H]2CC[C@H]1N2C(=O)NCCc1ccccc1", "Potency": "inconclusive: 12.6 µM [inhibitor, single point]"}
{"smiles": "CCN1CCN(Cc2ccc(NC(=O)c3ccc(C)c(NC(=O)C(=O)c4c[nH]c5ccccc45)c3)cc2C(F)(F)F)CC1", "Potency": "inconclusive: 15.8 µM [inhibitor, single point]"}
{"smiles": "CCCCC(=O)N1CCCC(c2nc(-c3cccc(OC)c3)no2)C1", "note": "(centres undefined)", "Potency": "inconclusive: 3.16 µM [inhibitor, full curve, poor fit]"}
{"smiles": "Cc1ccccc1-c1cc(C(=O)NCc2cccs2)n(CC2CC(c3cccnc3)=NO2)n1", "note": "(centres undefined)", "Potency": "inconclusive: 11.2 µM [inhibitor, partial curve, poor fit]"}
{"smiles": "O=C(Nc1ccc(N2CCN(c3ncccc3C(F)(F)F)CC2)nc1)c1cccs1", "Potency": "inconclusive: 12.6 µM [inhibitor, single point]"}
{"smiles": "O=C(C1CCC(=O)N1Cc1ccc(F)cc1)N1CCC2(CC1)OCCO2", "note": "(centres undefined)", "activity change, negative = inhibition": "inactive: 3.87%"}
{"smiles": "CC(C)C[C@H](NC(=O)[C@@H]1CCCN1C(=O)[C@@H](N)Cc1ccc(O)cc1)C(=O)NCC(N)=O", "activity change, negative = inhibition": "inactive: -1.74%"}
{"smiles": "CCC(C(=O)NC1CCCCC1)n1c(SCc2cccc(C)c2)nc2ccncc21", "note": "(centres undefined)", "Potency": "inconclusive: 10 µM [inhibitor, partial curve, poor fit]"}
{"smiles": "COC(=O)C1=C(C)N(Cc2ccccc2)C(=NCc2ccccc2)N[C@H]1c1cccc(C(F)(F)F)c1", "Potency": "inconclusive: 12.6 µM [inhibitor, single point]"}
{"smiles": "O=C(NC1CCN(Cc2ccccc2)CC1)c1cccc(S(=O)(=O)Nc2ccc(SC(F)F)cc2)c1", "Potency": "inconclusive: 12.6 µM [inhibitor, single point]"}
{"smiles": "COC(=O)C1=C(c2cccc(OCc3ccccc3)c2)C[C@@H]2CC[C@H]1N2C(=O)NCc1cccc(C(F)(F)F)c1", "Potency": "inconclusive: 8.91 µM [inhibitor, partial curve, poor fit]"}
{"smiles": "Cc1cccc(CN2CCCC(C(=O)Nc3ccc(-c4cscn4)cc3)C2)c1", "note": "(centres undefined)", "Potency": "inconclusive: 10 µM [inhibitor, single point]"}
{"smiles": "C[C@@H]1CCC(=O)N(CC[C@H](Sc2ccc(Br)cc2)c2ccccc2)CC1", "Potency": "inconclusive: 12.6 µM [inhibitor, single point]"}
{"smiles": "CCN(CC)C(=O)[C@H]1C[C@H](CC(=O)NCc2ccc(OC)c(OC)c2)C(=O)N2CCc3c([nH]c4ccc(Cl)cc34)[C@]12C", "Potency": "active: 10 µM"}
{"smiles": "CCCC12CN3CCN(CC(C3)/C1=N\\NC(=O)c1ccncc1)C2", "activity change, negative = inhibition": "inactive: -2.27%"}
{"smiles": "CC(C)C[C@@H](C(=O)NC1CCN(Cc2ccccc2)CC1)N1C(=O)N2CCc3c([nH]c4ccccc34)[C@@]2(C)C1=O", "Potency": "inconclusive: 22.4 µM [inhibitor, single point]"}
{"smiles": "Cc1cc([N+](=O)[O-])c2ccccc2[n+]1[O-]", "Potency": "inconclusive: 0.316 µM [inhibitor, full curve, poor fit]"}
{"smiles": "Cc1ccc(-c2csc(N3CCN(CCCn4c(-c5ccncc5)nc5ccccc54)CC3)n2)cc1", "Potency": "inconclusive: 12.6 µM [inhibitor, partial curve, poor fit]"}
{"smiles": "CN1CCc2cccc3c2[C@@H]1Cc1ccc(O)c(O)c1-3", "activity change, negative = inhibition": "inactive: -25.6%"}
{"smiles": "C/C(=N\\Nc1ccccc1)c1c(O)n(C)c(=O)n(C)c1=O", "activity change, negative = inhibition": "inactive: 5.5%"}
{"smiles": "COc1ccc(C(=O)N/N=C/c2ccc(N(C)c3ccccc3)cc2)cc1", "Potency": "inconclusive: 31.6 µM [inhibitor, single point]"}
{"smiles": "Cc1ccc(-n2c(O)c(/C=N/Nc3ccccc3)c(=O)[nH]c2=O)cc1C", "activity change, negative = inhibition": "inactive: 1.82%"}
{"smiles": "CC1(C)OC1COc1c2occc2cc2ccc(=O)oc12", "note": "(centres undefined)", "Potency": "inconclusive: 7.08 µM [inhibitor, partial curve]"}
{"smiles": "CC(=O)N1CCN(c2ccc(OC[C@H]3CO[C@](Cn4ccnc4)(c4ccc(Cl)cc4Cl)O3)cc2)CC1", "Potency": "inconclusive: 12.6 µM [inhibitor, partial curve, poor fit]"}
{"smiles": "COc1ccc(O)c(-c2nc(N)nc(N)n2)c1", "Potency": "inconclusive: 11.2 µM [inhibitor, single point]"}
{"smiles": "CNC(=O)Oc1cccc(-c2cn3cc(Cl)ccc3n2)c1", "Potency": "inconclusive: 2.82 µM [inhibitor, partial curve, poor fit]"}
{"smiles": "NC(=O)Cc1ccc2sc(-c3ccccc3)nc2c1", "Potency": "inconclusive: 7.08 µM [inhibitor, partial curve, poor fit]"}
{"smiles": "O=C1NC(=O)N(c2ccc(Cl)cc2)C(=O)/C1=C\\c1ccc(Sc2nc3ccccc3[nH]2)o1", "activity change, negative = inhibition": "inactive: -1.86%"}
{"smiles": "CC(=O)OC1(C)CC(C)C(=O)C(C(O)CC2CC(=O)NC(=O)C2)C1", "note": "(centres undefined)", "Potency": "inconclusive: 0.224 µM [inhibitor, partial curve, poor fit]"}
{"smiles": "COC(=O)C1=C(c2ccc(OC(F)(F)F)cc2)C[C@@H]2CC[C@H]1N2C(=O)NCCc1ccccc1", "Potency": "inconclusive: 10 µM [inhibitor, single point]"}
